{"source": "the supplement of paper PMC6411743", "test_in_all_cases": "NP40-soluble protein abundance relative to vehicle (solubility fold change) (ratio); higher = more soluble protein in presence of GTP", "key": {"[1]": {"molecular_target": "T1, PCYOX1 (UniProt Q9UHG3)", "T1 sequence (whole entry)": "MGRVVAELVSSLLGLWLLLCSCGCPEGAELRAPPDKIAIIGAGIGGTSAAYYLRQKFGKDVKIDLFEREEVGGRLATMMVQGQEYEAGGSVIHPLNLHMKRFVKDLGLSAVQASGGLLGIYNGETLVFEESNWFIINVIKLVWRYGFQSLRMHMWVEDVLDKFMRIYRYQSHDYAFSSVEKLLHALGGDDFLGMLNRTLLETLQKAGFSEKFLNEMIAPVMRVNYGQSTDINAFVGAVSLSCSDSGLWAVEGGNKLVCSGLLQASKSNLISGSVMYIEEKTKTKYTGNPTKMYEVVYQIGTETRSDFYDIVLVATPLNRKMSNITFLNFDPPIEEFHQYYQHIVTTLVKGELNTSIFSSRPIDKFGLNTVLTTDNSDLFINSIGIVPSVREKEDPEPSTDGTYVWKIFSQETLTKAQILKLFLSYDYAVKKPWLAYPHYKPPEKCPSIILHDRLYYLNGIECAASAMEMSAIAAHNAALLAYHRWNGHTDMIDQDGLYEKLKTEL", "method_in_brief": "(§1)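 Jurkat crude lysate (Dounce-homogenised) was treated with eight concentrations from 0.1 to 10 mM for 10 min at room temperature, then 3 min at 37 °C. It was solubilised with 0.8% NP40 and benzonase (60 min, 4 °C) and ultracentrifuged, and the supernatant was TMT-labelled for LC-MS/MS. Intensities were vsn-normalised, and the value is the fold change against the NP40-processed vehicle per replicate, from three independent experiments.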"}, "[2]": {"molecular_target": "T2, SERGEF (UniProt Q9UGK8)", "T2 sequence (whole entry)": "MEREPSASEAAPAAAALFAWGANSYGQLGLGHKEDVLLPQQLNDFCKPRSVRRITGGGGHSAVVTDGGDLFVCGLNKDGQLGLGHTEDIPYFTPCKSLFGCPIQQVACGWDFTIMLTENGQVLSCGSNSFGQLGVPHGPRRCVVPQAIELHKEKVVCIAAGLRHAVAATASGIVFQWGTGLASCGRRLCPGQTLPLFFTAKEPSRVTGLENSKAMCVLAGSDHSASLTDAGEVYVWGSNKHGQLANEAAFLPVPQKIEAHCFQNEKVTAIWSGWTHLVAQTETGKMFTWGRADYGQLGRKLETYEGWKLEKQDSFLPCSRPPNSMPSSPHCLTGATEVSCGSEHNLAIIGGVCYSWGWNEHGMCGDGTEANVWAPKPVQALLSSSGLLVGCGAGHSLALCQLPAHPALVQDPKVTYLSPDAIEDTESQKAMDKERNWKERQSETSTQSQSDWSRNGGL", "method_in_brief": "as §1"}, "[3]": {"molecular_target": "T3, TFIP11 (UniProt Q9UBB9)", "T3 sequence (whole entry)": "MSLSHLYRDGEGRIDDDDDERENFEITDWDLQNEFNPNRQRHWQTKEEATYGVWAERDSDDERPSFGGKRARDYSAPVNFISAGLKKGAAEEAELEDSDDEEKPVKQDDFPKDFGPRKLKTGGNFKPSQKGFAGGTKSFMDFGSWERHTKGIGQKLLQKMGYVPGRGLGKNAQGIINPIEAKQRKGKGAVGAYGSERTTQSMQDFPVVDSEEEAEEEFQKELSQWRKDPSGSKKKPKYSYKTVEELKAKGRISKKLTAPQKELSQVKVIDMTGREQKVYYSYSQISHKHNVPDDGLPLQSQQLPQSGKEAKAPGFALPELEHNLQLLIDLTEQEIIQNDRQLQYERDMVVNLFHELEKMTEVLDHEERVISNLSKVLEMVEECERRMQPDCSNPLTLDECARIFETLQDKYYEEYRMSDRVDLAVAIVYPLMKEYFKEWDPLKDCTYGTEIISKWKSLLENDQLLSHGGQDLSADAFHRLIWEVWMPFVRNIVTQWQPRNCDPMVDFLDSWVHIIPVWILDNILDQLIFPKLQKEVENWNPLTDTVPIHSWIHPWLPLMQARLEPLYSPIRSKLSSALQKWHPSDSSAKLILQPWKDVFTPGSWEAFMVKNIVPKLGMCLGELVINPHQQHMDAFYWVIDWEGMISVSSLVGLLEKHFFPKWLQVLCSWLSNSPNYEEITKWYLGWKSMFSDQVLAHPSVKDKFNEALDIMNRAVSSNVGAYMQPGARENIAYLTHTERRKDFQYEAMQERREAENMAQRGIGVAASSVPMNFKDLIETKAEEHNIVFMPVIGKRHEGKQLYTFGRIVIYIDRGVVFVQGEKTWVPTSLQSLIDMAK", "method_in_brief": "as §1"}, "[4]": {"molecular_target": "T4, UniProt Q9NVE7 and related entries", "T4 sequence (whole entry)": "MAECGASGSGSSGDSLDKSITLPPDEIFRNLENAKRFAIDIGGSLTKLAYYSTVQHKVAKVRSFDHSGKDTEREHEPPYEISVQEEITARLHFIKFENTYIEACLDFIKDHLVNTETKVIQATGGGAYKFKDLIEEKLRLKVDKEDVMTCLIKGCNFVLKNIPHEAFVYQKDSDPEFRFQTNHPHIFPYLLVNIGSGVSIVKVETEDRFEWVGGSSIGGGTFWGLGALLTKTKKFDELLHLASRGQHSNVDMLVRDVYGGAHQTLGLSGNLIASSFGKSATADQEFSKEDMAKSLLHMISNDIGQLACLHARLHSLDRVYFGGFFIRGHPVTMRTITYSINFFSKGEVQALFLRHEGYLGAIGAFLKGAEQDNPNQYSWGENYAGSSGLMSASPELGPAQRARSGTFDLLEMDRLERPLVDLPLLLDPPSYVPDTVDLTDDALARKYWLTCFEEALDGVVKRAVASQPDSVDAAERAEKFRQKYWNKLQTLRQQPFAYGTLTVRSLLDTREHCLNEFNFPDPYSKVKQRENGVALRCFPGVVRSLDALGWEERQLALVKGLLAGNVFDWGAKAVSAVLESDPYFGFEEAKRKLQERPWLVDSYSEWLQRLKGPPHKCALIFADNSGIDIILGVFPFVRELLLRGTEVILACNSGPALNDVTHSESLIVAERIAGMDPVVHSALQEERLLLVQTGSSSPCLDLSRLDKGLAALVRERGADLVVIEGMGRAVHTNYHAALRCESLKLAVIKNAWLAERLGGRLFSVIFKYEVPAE", "method_in_brief": "as §1"}}, "note": "± gives the standard deviation of the averaged measurements. Some of the results follow."}
{"compound": "Nc1nc2c(ncn2[C@@H]2O[C@H](COP(=O)(O)OP(=O)(O)OP(=O)(O)O)[C@@H](O)[C@H]2O)c(=O)[nH]1", "note": "[guanosine triphosphate]", "values": [{"measurement": "NP40-soluble protein abundance", "setting": "[1]; concentration: 0.1mM", "result": "1.08 ± 0.054"}, {"measurement": "NP40-soluble protein abundance", "setting": "[1]; concentration: 0.5mM", "result": "1.04 ± 0.077"}, {"measurement": "NP40-soluble protein abundance", "setting": "[1]; concentration: 1mM", "result": "0.968 ± 0.059"}, {"measurement": "NP40-soluble protein abundance", "setting": "[1]; concentration: 2mM", "result": "0.939 ± 0.058"}, {"measurement": "NP40-soluble protein abundance", "setting": "[1]; concentration: 4mM", "result": "0.91 ± 0.06"}, {"measurement": "NP40-soluble protein abundance", "setting": "[1]; concentration: 6mM", "result": "0.944 ± 0.09"}, {"measurement": "NP40-soluble protein abundance", "setting": "[1]; concentration: 8mM", "result": "0.899 ± 0.078"}, {"measurement": "NP40-soluble protein abundance", "setting": "[1]; concentration: 10mM", "result": "0.893 ± 0.12"}, {"measurement": "NP40-soluble protein abundance", "setting": "[2]; concentration: 0.1mM", "result": "1.04 ± 0.048"}, {"measurement": "NP40-soluble protein abundance", "setting": "[2]; concentration: 0.5mM", "result": "1.05 ± 0.078"}, {"measurement": "NP40-soluble protein abundance", "setting": "[2]; concentration: 1mM", "result": "0.999 ± 0.092"}, {"measurement": "NP40-soluble protein abundance", "setting": "[2]; concentration: 2mM", "result": "1.03 ± 0.11"}, {"measurement": "NP40-soluble protein abundance", "setting": "[2]; concentration: 4mM", "result": "0.954 ± 0.13"}, {"measurement": "NP40-soluble protein abundance", "setting": "[2]; concentration: 6mM", "result": "0.938 ± 0.11"}, {"measurement": "NP40-soluble protein abundance", "setting": "[2]; concentration: 8mM", "result": "0.953 ± 0.1"}, {"measurement": "NP40-soluble protein abundance", "setting": "[2]; concentration: 10mM", "result": "0.959 ± 0.18"}, {"measurement": "NP40-soluble protein abundance", "setting": "[3]; concentration: 0.1mM", "result": "1.04 ± 0.055"}, {"measurement": "NP40-soluble protein abundance", "setting": "[3]; concentration: 0.5mM", "result": "1.06 ± 0.07"}, {"measurement": "NP40-soluble protein abundance", "setting": "[3]; concentration: 1mM", "result": "1.07 ± 0.053"}, {"measurement": "NP40-soluble protein abundance", "setting": "[3]; concentration: 2mM", "result": "1.07 ± 0.071"}, {"measurement": "NP40-soluble protein abundance", "setting": "[3]; concentration: 4mM", "result": "1.06 ± 0.073"}, {"measurement": "NP40-soluble protein abundance", "setting": "[3]; concentration: 6mM", "result": "1.08 ± 0.065"}, {"measurement": "NP40-soluble protein abundance", "setting": "[3]; concentration: 8mM", "result": "1.14 ± 0.1"}, {"measurement": "NP40-soluble protein abundance", "setting": "[3]; concentration: 10mM", "result": "1.14 ± 0.11"}, {"measurement": "NP40-soluble protein abundance", "setting": "[4]; concentration: 0.1mM", "result": "1.11 ± 0.032"}, {"measurement": "NP40-soluble protein abundance", "setting": "[4]; concentration: 0.5mM", "result": "1.04 ± 0.05"}, {"measurement": "NP40-soluble protein abundance", "setting": "[4]; concentration: 1mM", "result": "1.01 ± 0.065"}, {"measurement": "NP40-soluble protein abundance", "setting": "[4]; concentration: 2mM", "result": "1.02 ± 0.027"}, {"measurement": "NP40-soluble protein abundance", "setting": "[4]; concentration: 4mM", "result": "0.972 ± 0.051"}, {"measurement": "NP40-soluble protein abundance", "setting": "[4]; concentration: 6mM", "result": "0.963 ± 0.037"}, {"measurement": "NP40-soluble protein abundance", "setting": "[4]; concentration: 8mM", "result": "0.956 ± 0.03"}, {"measurement": "NP40-soluble protein abundance", "setting": "[4]; concentration: 10mM", "result": "0.968 ± 0.075"}]}
